Data from paper PMC6180346, “Two Faces of CwlM, an Essential PknB Substrate, in Mycobacterium tuberculosis” (Cell Reports, 2018).
No constants are given. Whether binding was seen depends on the method and setting. Binding seen in cells or lysates may run through a third protein. Some entries that bind do so weakly or less than the wild type. Where a sequence is shown, tags or fusion partners need not be part of it.

The chains behind the UniProt entries cited, without tags or fusion partners.
UniProt P9WJF3: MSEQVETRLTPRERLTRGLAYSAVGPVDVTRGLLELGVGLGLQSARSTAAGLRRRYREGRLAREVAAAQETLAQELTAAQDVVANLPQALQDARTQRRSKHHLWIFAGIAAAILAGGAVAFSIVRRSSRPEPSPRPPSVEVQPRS

Biological target: T1, CwlM fused to a dihydrofolate reductase domain (M-PFC) (M. tuberculosis) (UniProt L7N653)
T1 sequence: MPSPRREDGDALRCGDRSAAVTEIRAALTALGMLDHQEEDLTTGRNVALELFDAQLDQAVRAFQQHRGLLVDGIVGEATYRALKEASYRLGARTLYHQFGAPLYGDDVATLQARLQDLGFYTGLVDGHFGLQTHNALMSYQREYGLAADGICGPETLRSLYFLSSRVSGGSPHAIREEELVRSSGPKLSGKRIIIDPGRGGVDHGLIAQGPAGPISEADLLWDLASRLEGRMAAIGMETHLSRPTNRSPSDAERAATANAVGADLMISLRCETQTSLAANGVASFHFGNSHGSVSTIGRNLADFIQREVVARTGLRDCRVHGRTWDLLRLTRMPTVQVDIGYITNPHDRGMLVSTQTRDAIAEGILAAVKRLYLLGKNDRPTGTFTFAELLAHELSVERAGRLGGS
Assay: split reporter; mycobacterial protein fragment complementation (M-PFC), fusions with dihydrofolate reductase domains in M. smegmatis, spotted on 7H10 plates with hygromycin, kanamycin and trimethoprim

Molecule	binding
CwsA fused to a dihydrofolate reductase domain (M-PFC) (from UniProt P9WJF3 1-145)	binds
FhaA fused to a dihydrofolate reductase domain (M-PFC) (protein, UniProt P71590 1-527) MGSQKRLVQRVERKLEQTVGDAFARIFGGSIVPQEVEALLRREAADGIQSLQGNRLLAPNEYIITLGVHDFEKLGADPELKSTGFARDLADYIQEQGWQTYGDVVVRFEQSSNLHTGQFRARGTVNPDVETHPPVIDCARPQSNHAFGAEPGVAPMSDNSSYRGGQGQGRPDEYYDDRYARPQEDPRGGPDPQGGSDPRGGYPPETGGYPPQPGYPRPRHPDQGDYPEQIGYPDQGGYPEQRGYPEQRGYPDQRGYQDQGRGYPDQGQGGYPPPYEQRPPVSPGPAAGYGAPGYDQGYRQSGGYGPSPGGGQPGYGGYGEYGRGPARHEEGSYVPSGPPGPPEQRPAYPDQGGYDQGYQQGATTYGRQDYGGGADYTRYTESPRVPGYAPQGGGYAEPAGRDYDYGQSGAPDYGQPAPGGYSGYGQGGYGSAGTSVTLQLDDGSGRTYQLREGSNIIGRGQDAQFRLPDTGVSRRHLEIRWDGQVALLADLNSTNGTTVNNAPVQEWQLADGDVIRLGHSEIIVRMH	binds
